According to publication PMC3948860:
These are yes or no findings as the source states them, for the method shown. In cells and extracts the contact can be indirect. Some entries that bind do so weakly or less than the wild type.

The chains behind the UniProt entries cited, without tags or fusion partners. Where a name states a change or a piece, a line headed by the entry shows the natural chain unless it says otherwise. Residues count along the entry.
UniProt P50406: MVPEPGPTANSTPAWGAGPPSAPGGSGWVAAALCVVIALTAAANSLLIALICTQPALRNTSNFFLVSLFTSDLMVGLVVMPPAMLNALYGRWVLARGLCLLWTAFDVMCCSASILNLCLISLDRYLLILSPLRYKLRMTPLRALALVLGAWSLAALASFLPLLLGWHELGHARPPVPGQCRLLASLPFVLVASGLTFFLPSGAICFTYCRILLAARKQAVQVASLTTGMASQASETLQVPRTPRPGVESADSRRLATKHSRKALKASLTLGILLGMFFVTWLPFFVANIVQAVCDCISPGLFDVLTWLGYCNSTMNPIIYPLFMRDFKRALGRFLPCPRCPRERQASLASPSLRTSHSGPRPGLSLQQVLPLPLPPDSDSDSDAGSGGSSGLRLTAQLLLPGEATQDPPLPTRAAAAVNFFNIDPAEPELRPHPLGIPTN
GST-carboxyl-terminus (CT) of the 5-HT6R: residues 321-440 of P50406
UniProt P15205: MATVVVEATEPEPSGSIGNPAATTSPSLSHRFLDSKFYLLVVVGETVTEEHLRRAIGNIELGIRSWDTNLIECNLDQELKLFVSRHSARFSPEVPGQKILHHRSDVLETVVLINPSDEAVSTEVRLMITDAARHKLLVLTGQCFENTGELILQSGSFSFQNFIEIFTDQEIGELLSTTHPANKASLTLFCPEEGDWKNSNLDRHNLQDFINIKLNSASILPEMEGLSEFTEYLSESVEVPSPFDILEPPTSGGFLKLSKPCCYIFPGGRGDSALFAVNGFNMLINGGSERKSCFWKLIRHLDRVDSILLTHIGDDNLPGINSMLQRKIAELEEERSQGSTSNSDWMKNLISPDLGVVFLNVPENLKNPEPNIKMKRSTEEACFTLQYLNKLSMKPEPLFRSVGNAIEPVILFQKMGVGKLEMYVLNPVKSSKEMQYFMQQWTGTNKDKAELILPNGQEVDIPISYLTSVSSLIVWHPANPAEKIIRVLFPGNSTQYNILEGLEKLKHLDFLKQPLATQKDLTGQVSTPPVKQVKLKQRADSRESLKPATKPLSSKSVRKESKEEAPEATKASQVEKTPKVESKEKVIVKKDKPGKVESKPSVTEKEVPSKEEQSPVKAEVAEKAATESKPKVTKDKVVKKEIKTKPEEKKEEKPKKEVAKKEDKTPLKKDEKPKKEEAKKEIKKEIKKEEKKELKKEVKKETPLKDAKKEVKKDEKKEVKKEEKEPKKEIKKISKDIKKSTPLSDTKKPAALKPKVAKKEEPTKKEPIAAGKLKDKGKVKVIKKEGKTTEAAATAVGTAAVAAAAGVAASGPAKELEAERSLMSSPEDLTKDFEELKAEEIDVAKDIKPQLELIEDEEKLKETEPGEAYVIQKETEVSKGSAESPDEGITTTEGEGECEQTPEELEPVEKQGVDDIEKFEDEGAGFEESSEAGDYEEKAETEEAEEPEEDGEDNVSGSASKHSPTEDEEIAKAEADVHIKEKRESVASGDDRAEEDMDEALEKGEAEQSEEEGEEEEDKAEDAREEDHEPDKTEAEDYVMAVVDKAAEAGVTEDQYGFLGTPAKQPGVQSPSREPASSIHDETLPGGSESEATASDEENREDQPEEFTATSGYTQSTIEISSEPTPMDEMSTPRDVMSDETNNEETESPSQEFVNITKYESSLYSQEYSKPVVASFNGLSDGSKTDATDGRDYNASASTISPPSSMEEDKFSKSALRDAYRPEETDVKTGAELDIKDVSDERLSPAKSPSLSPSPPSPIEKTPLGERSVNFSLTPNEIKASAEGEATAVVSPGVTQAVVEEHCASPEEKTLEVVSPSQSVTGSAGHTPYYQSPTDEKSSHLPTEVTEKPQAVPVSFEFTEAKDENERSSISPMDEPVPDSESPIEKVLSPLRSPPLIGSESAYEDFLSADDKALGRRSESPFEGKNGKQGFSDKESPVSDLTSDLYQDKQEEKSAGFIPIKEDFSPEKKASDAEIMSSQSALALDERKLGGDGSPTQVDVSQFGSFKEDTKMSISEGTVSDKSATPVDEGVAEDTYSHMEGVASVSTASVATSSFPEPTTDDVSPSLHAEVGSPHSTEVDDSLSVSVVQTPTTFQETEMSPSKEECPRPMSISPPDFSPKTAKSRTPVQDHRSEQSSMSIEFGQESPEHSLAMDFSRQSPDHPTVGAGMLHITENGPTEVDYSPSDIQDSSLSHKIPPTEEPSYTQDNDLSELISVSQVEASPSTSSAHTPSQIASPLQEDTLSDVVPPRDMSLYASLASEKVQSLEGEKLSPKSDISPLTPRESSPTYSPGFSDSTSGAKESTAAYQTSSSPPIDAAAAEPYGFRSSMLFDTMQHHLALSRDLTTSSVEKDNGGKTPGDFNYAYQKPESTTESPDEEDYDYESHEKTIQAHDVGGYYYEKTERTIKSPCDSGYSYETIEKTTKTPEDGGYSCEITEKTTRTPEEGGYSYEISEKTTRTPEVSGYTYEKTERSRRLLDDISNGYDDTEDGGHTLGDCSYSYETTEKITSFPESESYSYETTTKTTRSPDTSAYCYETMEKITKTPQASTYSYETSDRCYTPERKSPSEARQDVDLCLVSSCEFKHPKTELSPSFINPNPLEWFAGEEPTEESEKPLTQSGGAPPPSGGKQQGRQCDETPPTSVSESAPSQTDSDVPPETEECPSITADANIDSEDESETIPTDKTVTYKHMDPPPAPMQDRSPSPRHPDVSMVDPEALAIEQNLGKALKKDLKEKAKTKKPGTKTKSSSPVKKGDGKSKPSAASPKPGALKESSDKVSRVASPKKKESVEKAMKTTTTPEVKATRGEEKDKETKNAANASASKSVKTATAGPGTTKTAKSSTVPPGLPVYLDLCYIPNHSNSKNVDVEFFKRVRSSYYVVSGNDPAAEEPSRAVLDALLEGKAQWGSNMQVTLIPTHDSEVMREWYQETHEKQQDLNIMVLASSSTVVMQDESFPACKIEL
UniProt P31388: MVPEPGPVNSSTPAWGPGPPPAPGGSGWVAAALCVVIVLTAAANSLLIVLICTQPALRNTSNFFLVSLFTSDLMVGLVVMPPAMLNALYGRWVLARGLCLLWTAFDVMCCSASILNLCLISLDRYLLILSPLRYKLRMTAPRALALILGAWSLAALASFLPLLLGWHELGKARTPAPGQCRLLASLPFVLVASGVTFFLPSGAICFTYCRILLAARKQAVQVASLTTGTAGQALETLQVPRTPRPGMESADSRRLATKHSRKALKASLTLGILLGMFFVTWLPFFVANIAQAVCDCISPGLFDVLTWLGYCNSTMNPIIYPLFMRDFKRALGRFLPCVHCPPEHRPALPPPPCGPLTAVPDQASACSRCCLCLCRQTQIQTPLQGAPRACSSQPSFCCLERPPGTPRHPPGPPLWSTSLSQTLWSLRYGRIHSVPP
UniProt P46821: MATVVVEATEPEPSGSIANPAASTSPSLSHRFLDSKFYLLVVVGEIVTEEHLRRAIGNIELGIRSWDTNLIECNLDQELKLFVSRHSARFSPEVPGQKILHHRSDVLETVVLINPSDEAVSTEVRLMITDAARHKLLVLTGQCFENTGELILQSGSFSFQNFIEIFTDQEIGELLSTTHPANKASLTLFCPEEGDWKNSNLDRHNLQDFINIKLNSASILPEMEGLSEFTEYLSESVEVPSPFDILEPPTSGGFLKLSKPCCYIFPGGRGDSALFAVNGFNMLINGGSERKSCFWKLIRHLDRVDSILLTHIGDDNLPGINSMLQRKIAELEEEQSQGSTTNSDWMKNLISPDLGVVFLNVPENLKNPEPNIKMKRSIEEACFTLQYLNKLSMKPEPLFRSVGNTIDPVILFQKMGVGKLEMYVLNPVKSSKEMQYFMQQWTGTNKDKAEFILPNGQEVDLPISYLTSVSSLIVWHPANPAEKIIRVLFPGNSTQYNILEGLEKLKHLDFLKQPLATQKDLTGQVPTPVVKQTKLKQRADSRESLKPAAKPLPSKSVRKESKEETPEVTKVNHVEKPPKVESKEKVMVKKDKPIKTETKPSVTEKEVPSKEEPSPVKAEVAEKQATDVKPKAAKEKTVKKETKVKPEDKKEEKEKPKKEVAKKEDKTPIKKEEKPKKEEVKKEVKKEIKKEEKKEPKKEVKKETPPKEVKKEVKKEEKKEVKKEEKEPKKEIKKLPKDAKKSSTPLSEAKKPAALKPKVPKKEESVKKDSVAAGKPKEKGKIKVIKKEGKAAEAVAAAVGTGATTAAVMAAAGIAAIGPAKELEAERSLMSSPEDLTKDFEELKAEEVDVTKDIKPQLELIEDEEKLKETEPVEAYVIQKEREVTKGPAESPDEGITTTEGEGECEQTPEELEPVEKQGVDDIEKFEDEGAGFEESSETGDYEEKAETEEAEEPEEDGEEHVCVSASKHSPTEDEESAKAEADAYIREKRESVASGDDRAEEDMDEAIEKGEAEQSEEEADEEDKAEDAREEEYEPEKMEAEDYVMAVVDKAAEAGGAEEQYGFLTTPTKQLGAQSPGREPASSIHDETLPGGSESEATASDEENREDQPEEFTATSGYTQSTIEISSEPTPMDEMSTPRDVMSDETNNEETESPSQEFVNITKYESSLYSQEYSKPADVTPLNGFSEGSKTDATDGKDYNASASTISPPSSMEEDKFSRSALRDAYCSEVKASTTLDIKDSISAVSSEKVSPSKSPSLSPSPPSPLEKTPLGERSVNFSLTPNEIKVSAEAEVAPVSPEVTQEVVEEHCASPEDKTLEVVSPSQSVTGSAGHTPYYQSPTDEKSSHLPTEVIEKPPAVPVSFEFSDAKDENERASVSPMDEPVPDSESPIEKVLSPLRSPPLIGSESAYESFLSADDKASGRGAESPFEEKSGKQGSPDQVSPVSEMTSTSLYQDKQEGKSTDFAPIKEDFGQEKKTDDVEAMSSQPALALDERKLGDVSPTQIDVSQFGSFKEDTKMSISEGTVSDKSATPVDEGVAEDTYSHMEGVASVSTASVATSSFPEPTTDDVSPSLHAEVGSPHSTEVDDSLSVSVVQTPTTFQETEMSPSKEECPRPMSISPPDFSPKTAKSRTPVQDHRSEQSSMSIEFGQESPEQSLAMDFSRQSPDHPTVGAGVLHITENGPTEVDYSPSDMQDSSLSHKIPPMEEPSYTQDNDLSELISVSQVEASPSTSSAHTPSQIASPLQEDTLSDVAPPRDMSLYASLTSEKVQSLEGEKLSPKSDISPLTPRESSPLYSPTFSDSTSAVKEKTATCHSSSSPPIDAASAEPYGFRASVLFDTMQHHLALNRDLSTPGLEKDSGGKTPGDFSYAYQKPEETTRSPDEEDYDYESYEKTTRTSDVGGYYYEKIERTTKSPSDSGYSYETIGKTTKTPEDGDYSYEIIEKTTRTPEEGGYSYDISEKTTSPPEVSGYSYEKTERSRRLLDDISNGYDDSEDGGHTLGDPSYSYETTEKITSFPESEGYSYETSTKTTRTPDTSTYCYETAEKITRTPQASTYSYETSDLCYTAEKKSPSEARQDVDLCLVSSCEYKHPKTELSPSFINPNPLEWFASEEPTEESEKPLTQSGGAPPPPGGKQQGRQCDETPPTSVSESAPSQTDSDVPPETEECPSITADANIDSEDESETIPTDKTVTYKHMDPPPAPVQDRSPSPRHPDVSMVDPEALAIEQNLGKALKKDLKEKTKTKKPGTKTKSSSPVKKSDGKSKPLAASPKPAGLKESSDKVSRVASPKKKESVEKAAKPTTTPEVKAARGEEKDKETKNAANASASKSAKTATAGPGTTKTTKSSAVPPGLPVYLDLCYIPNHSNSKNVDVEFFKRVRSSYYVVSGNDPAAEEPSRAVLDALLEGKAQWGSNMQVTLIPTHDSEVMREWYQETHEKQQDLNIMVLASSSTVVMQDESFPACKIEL

Columns and labels:
[1] = target: GST-carboxyl-terminus (CT) of the 5-HT6R (human) (UniProt P50406); assay: pull-down; GST-tagged CT regions immobilized on glutathione gel, incubated with HEK293 cell lysates containing Flag-LC1; three washes with lysis buffer; immunoblot with anti-Flag and anti-GST; only the target purified
[2] = target: HA-tagged 5-HT6R, stably expressed in HEK293 cells (HEK293/HA-6R) (human) (UniProt P50406); assay: co-IP; HEK293/HA-6R cells transiently transfected with Flag-LC1; immunoprecipitation with anti-HA, immunoblot with anti-Flag
[3] = target: endogenous MAP1B of rat brain (rat (endogenous in fetal rat brain)) (UniProt P15205); assay: co-IP; fetal rat brain lysate; reverse: immunoprecipitation with anti-MAP1B, immunoblot with 5-HT6R antibodies
[4] = target: endogenous 5-HT6R of rat brain (rat (endogenous in fetal rat brain)) (UniProt P31388); assay: co-IP; fetal rat brain lysate; immunoprecipitation with anti-5-HT6R, immunoblot with anti-MAP1B; control IgG
[5] = target: HA-5-HT6R, transiently expressed in SH-SY5Y cells (human) (UniProt P50406); assay: co-IP; SH-SY5Y cells transiently transfected with HA-5-HT6R; immunoprecipitation with anti-HA, immunoblot with anti-MAP1B; control IgG

Flag-tagged LC1 of MAP1B (from UniProt P46821 2207-2468) (domain or fragment)
binding [1]: binds
binding [2]: binds

endogenous 5-HT6R of rat brain (from UniProt P31388 1-436) (receptor)
binding [3]: binds

endogenous MAP1B of rat brain (from UniProt P15205 1-2461)
binding [4]: binds

endogenous MAP1B protein of SH-SY5Y cells (from UniProt P46821 1-2468)
binding [5]: binds
